# According to US20130143825A1, “COMPOUNDS FOR USE IN THE TREATMENT OF DISEASES BASED ON THE EXPRESSION OF TOXIC TRANSCRIPTS” (UNIVERSITAT DE VALENCIA, priority 2010, published 2013):
# Not every detail of the peptide structures is certain; ends, links or a residue may be inferred. Non-standard residues stand in square brackets, D forms with d. Residues, ends and D or L forms follow the SMILES beside them.
# Key:
# [1] = tested on: ribonuclear aggregates (foci) that comprise CUG repeats; experiment: Ribonuclear aggregates (foci) and Mbl immunofluorescence in IFMs; type: in vivo, Drosophila; conditions: oral
# FAM-(CUG)23 RNA = experiment: Fluorescence gel retardation assay with FAM-(CUG)23; type: binding; conditions: co-incubation of p10 and MblZF
# Excerpt: The changes on the RNA caused by p10 in the FP assay are small, probably due to the low molecular weight of the molecule (less than 900 Da). For this reason, it was decided to supplement the study with gel retardation experiments. These assays are based on the differences in electrophoretic mobility between stable protein-nucleic acid complexes and their components separately. Since the FAM-(CUG)23 RNA was available, it was decided to prepare a fluorescence gel retardation assay. After determining the optimal quantity of RNA for detection (60 nM; FIG. 21A), the binding between the latter and MblZF was studied. Said binding caused both a decrease in the intensity of the band corresponding to the free RNA in the gel and the appearance of a signal in the interior of the gel wells (bound RNA).
# In order to determine whether p10 could bind to CUG RNA molecules, it was decided to perform a similar gel retardation experiment between the peptide and FAM-(CUG)23. p10 bound to the RNA, with part of the complex being retained in the well, as described for MblZF. […] This affinity decreased upon decreasing the size of the repeats (FAM-(CUG)4, FIG. 24C). […] This could be due either to a synergic effect between the protein and the peptide or to an additive effect if both should bind to different RNA sites. […]
# CAG.CUG4 RNA = experiment: Tryptophan intrinsic fluorescence extinction, CAG.CUG4; type: binding; conditions: p10 5 μM; emission 351 nm; nucleic acid 2.5-12.5 μM
# DMPK RNA = experiment: Tryptophan intrinsic fluorescence extinction, DMPK RNA; type: binding; conditions: p10 5 μM; emission 351 nm; nucleic acid 2.5-12.5 μM
# CTG4 DNA = experiment: Tryptophan intrinsic fluorescence extinction, CTG4; type: binding; conditions: p10 5 μM; emission 351 nm; nucleic acid 2.5-12.5 μM
smiles,measurement,setting,value
C[C@@H](NC(=O)[C@@H](Cc1ccc(O)cc1)NC(=O)[C@H]1CCCN1C(=O)[C@H]1CCCN1)C(=O)N[C@H](Cc1c[nH]c2ccccc12)C(=O)N[C@H](CCC(=O)O)C(=O)O [p10] (H-[dP][dP][dY][dA][dW][dE]-OH),cellular distribution of Mbl (immunofluorescence),"[1]; 250 μM, control shows aggregates",distribution in dispersed form
same,number of ribonuclear aggregates (foci) that comprise CUG repeats,[1]; all p10 concentrations tested,drastically reduces
same,competition with MblZF for binding to FAM-(CUG)23,FAM-(CUG)23 RNA,did not prevent the binding of MblZF
same,slope of fluorescence extinction curve,CAG.CUG4 RNA,−0.028±0.003
same,slope of fluorescence extinction curve,DMPK RNA,−0.024±0.003
same,slope of fluorescence extinction curve,CTG4 DNA,−0.019±0.005
